From paper PMC4935812

Protein sequences, listed by entry. Tags and fused reporters are not part of them.
UniProt Q09161: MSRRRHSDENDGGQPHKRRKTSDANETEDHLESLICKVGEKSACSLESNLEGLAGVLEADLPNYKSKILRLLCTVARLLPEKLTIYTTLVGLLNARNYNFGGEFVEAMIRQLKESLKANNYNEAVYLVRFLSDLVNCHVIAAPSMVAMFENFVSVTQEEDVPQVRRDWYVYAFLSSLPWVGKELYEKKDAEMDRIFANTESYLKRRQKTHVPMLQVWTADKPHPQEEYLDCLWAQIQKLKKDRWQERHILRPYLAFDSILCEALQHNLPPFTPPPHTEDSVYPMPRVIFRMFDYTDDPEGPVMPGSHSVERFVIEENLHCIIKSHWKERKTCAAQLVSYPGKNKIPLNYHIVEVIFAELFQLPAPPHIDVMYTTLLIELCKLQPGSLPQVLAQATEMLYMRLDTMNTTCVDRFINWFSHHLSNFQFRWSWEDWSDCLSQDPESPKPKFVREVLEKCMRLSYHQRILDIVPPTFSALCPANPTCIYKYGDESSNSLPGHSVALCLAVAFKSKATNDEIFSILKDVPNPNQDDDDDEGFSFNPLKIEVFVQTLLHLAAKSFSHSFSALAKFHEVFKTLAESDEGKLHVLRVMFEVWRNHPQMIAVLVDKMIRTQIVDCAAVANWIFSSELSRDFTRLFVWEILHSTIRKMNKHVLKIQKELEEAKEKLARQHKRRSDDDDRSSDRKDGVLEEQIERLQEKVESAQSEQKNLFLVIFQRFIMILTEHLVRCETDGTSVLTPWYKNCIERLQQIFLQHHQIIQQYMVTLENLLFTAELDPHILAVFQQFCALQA
UniProt P41091: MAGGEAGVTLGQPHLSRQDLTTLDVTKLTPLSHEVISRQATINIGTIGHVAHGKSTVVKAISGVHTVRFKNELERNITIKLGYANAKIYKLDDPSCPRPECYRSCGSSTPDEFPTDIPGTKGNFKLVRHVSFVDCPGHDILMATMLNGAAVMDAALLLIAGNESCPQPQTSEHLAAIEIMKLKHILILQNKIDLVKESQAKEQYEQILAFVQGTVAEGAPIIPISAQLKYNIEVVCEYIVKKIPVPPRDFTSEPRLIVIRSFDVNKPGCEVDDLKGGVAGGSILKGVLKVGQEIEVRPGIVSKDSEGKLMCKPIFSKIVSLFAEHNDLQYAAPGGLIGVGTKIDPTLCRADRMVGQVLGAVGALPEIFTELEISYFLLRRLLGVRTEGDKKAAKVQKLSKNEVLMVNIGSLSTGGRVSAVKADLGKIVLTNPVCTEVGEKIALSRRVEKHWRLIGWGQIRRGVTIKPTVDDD
UniProt P60842: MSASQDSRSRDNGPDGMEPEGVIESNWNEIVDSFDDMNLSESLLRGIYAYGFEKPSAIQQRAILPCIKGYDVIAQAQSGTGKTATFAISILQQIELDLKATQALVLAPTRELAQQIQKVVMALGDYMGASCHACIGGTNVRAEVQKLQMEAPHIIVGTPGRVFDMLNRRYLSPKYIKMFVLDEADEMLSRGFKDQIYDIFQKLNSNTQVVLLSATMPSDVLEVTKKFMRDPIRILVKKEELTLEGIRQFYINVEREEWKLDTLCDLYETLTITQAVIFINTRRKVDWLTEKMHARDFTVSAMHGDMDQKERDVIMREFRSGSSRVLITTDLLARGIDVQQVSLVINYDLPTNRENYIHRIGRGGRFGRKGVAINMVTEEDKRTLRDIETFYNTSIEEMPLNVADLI
UniProt P11940: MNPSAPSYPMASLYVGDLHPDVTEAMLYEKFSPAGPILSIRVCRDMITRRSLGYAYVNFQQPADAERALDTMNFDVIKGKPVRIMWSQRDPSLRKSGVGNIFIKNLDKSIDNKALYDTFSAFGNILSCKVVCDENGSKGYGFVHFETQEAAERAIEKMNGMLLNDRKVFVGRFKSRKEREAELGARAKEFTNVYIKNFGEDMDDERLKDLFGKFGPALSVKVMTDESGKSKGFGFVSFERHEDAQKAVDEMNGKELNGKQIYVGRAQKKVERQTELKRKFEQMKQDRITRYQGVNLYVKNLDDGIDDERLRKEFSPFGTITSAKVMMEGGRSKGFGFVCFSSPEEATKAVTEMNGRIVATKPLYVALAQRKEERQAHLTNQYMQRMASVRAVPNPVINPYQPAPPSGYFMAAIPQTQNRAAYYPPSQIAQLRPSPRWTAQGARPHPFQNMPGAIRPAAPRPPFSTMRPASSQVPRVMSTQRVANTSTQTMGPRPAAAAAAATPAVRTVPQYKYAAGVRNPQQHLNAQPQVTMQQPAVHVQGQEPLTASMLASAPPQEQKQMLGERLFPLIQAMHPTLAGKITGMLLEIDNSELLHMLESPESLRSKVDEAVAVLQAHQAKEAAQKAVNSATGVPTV

Target: T1, SRSF3 (of the SRSF3 immunoprecipitates used for proteomic analysis) (human) (UniProt P84103)
T1 sequence: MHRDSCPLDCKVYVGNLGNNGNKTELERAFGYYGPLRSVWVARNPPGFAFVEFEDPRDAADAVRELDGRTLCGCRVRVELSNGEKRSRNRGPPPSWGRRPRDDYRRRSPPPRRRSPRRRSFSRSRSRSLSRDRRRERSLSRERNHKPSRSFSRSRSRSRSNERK
Assay: affinity purification with mass spectrometry; proteomic analysis of SRSF3 immunoprecipitates; no further details given

With “nuclear cap-binding protein (NCBP1) (from UniProt Q09161 1-790)” the binding was “binds”.

With “eukaryotic translation initiation factor 2 subunit 3 (EIF2S3) (from UniProt P41091 1-472)” the binding was “binds”.

In the case of “eukaryotic initiation factor 4A-1 (EIF4A1) (from UniProt P60842 1-406)”, the binding is reported as “binds”.

“polyadenylate-binding protein 1 (PABP1) (from UniProt P11940 1-636)” was tested, and the binding was “binds”.

B1: eukaryotic translation initiation factor 2A (EIF2A) (protein, UniProt Q9BY44 1-585)
chain: MAPSTPLLTVRGSEGLYMVNGPPHFTESTVFPRESGKNCKVCIFSKDGTLFAWGNGEKVNIISVTNKGLLHSFDLLKAVCLEFSPKNTVLATWQPYTTSKDGTAGIPNLQLYDVKTGTCLKSFIQKKMQNWCPSWSEDETLCARNVNNEVHFFENNNFNTIANKLHLQKINDFVLSPGPQPYKVAVYVPGSKGAPSFVRLYQYPNFAGPHAALANKSFFKADKVTMLWNKKATAVLVIASTDVDKTGASYYGEQTLHYIATNGESAVVQLPKNGPIYDVVWNSSSTEFCAVYGFMPAKATIFNLKCDPVFDFGTGPRNAAYYSPHGHILVLAGFGNLRGQMEVWDVKNYKLISKPVASDSTYFAWCPDGEHILTATCAPRLRVNNGYKIWHYTGSILHKYDVPSNAELWQVSWQPFLDGIFPAKTITYQAVPSEVPNEEPKVATAYRPPALRNKPITNSKLHEEEPPQNMKPQSGNDKPLSKTALKNQRKHEAKKAAKQEARSDKSPDLAPTPAPQSTPRNTVSQSISGDPEIDKKIKNLKKKLKAIEQLKEQAATGKQLEKNQLEKIQKETALLQELEDLELGI
With B1 the binding was “binds”.

No constants are given. Whether binding was seen depends on the method and setting. Binding seen in cells or lysates may run through a third protein. Here binding means that the protein was enriched with, or labelled near, the bait; the list need not be complete.
